Measured values taken from publication PMC7515710.

Experiments:
[1] = target: His6-3xFlag fused Mmp-RpoL (subunit L of the archaeal RNA polymerase of M. maripaludis) (Methanococcus maripaludis S2); assay: co-IP; anti-FLAG M2 magnetic beads added to 5 mg pretreated cell extract of strain Mmp-RpoL-HF, 8 h at 4°C, five washes with lysis buffer, eluted with 3x FLAG peptide; western blot for Mmp-aCPSF1; extract untreated or treated with RNase, DNase or Benzonase; S2 as mock control
[2] = target: His6-3xFlag fused Mmp-RpoL (subunit L of the archaeal RNA polymerase of M. maripaludis) (Methanococcus maripaludis S2); assay: tandem affinity purification (TAP); about 20 mg cell extract of strain Mmp-RpoL-HF first purified by His-tag affinity chromatography, concentrated, imidazole removed, then anti-Flag immunoprecipitation; western blot for Mmp-aCPSF1; S2 as mock control
[3] = target: His6-3xFlag fused Mmp-RpoL (subunit L of the archaeal RNA polymerase of M. maripaludis) (Methanococcus maripaludis S2); assay: pull-down; His-tag affinity chromatography: about 20 mg cell extract of strain Mmp-RpoL-HF on a His-Trap HP column; western blot for Mmp-aCPSF1; S2 as mock control

Measured: binding

B1: Mmp-aCPSF1 (archaeal ribonuclease aCPSF1 of Methanococcus maripaludis) (enzyme, UniProt Q6LZD5 1-635)
chain: MSAEDILNEIKAAVINKAPGNAVITDVEFEGSEVVIYAKNPELFSNNLIKEFARDFRKRLAIRPDPSVLVEPDIAKDKILKIVPEDAEITNCIFDANTGEVIIESKKPGLVIGKEGSTLEDIKKAIQWAPKPVRTPPIPSDTIKAIRATMYRERADVKDILRRIGRRIHRDVRLRDDSWVRTSFLGGSREVGRTCLYHQTPESRILVDCGINIAVEDEKAFPHFDAPEFSIEEIDAVVVTHAHLDHCGFIPGLFRYGYDGPVYCTKPTRDLMTLLQKDYVDITEKEGKNVPYSSKDIKNCIKHTIPLDYGVTTDIAPAIKLTMHNAGHILGSAIAHCHVGDGLYNVAYTGDIKFEASRLLEPAVCQFPRLETLIIESTYGGYDDVLPERDETEKEFLRVIAETIARKGKAIIPVFGIGRAQELMLVLEEGYNQGIFNAPVYLDGMIWEATAIHTAYPEYLSKNMRNRIFHEGDNPFLSEVFKKVKNTNDRRNIMDSDEPGIILTTSGMLSGGPSVEYFKNLADDEKNSIVFVGYQSEGTLGRKIQKGFKEIPLMGKNGRSKAVKVNLSVHTLEGFSGHSDRKQLIKYLRKLKPIPDRILTVHGEVSKCIDLASTAYKLFKKETKAPMNLDSIRLR
binds: [1] | [2] | [3]

Results are given in words; binding and its absence hold for the method and conditions named. Binding can be weak; no strength is given. For part of these data: Binding seen in cells or lysates may run through a third protein.
